The target of this assay is Activin RIIA receptor (ActRIIA) (human) (UniProt P27037). Description: SPR; receptors captured on immobilized anti-human Fc; IL34 injected (18.75, 37.5, 75, 150, 300 nM); T200, 25 °C, PBS pH 7.4 with 0.05% P20; steady-state fitting model; both purified. For orientation: SPR reads the build-up and loss of mass on a sensor chip optically.

By UniProt entry, the sequences of proteins in these tests, tags left out.
UniProt P27037: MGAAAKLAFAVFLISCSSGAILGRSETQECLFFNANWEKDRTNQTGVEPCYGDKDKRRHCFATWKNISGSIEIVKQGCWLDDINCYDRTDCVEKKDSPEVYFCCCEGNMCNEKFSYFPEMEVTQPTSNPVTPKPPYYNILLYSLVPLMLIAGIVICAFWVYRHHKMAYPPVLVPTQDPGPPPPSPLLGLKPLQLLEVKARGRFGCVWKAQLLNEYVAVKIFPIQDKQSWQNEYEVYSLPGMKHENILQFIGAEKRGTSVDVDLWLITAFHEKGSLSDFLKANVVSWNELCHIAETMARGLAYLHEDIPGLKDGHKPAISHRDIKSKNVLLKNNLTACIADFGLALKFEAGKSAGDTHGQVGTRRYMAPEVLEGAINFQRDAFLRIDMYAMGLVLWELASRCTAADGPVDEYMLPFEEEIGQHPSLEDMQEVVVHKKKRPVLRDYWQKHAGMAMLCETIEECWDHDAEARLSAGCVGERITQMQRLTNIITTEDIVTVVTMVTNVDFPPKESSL

No constants are given. Whether binding was seen depends on the method and setting. Some binding calls cover weakened binding; strength is not graded here.

B1: Recombinant human interleukin-34 (IL34) (ligand)
chain: NEPLEMWPLTQNEECTVTGFLRDKLQYRSRLQYMKHYFPINYKISVPYEGVFRIANVTRLQRAQVSERELRYLWVLVSLSATESVQDVLLEGHPSWKYLQEVETLLLNVQQGLTDVEVSPKVESVLSLLNAPGPNLKLVRPKALLDNCFRVMELLYCSCCKQSSVLNWQDCEVPSPQSCSPEPSLQYAATQLYPPPPWSPSSPPHSTGSVRPVRAQGEGLLP
Consider B1, for which the binding result is recorded as “binds”.

For the origin of these results see paper PMC11898274, “Interleukin-34 orchestrates bone formation through its binding to bone morphogenic proteins” (Theranostics, 2025).
